Measured values reported in the supplement of paper PMC12067093, “Discovery and optimisation of a covalent ligand for TRIM25 and its application to targeted protein ubiquitination” (Chemical Science, 2025).
Some of the results follow.

Chains of the proteins cited; added tags and fusions are not shown. Lines headed by an entry give the natural chain unless they say otherwise; changes in a name come on top.
UniProt Q8WTW3: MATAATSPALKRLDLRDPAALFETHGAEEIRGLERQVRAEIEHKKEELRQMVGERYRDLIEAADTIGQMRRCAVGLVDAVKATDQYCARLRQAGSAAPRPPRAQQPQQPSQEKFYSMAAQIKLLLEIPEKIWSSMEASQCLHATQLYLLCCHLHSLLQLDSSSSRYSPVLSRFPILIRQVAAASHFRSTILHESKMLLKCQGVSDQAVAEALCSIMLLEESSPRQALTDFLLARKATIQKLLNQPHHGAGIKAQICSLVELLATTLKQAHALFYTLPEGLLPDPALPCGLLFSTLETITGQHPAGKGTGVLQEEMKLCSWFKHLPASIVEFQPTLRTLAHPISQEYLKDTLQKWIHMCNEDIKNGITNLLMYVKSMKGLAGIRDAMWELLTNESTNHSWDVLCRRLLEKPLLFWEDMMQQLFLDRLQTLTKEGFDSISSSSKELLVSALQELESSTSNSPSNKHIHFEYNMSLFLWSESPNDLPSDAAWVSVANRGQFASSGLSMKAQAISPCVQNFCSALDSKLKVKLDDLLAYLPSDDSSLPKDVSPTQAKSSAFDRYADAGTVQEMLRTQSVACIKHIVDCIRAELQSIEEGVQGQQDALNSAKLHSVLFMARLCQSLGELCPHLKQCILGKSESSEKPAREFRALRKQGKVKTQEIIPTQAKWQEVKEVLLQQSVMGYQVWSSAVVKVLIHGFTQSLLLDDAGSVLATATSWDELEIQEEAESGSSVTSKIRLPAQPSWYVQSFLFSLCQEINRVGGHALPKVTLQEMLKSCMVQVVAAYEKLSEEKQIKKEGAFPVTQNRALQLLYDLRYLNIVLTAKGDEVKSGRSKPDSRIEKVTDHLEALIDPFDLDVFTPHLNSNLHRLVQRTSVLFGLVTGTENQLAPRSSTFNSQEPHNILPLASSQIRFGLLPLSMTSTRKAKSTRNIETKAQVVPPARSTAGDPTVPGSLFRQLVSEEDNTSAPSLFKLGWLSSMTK
UniProt Q9UBF2: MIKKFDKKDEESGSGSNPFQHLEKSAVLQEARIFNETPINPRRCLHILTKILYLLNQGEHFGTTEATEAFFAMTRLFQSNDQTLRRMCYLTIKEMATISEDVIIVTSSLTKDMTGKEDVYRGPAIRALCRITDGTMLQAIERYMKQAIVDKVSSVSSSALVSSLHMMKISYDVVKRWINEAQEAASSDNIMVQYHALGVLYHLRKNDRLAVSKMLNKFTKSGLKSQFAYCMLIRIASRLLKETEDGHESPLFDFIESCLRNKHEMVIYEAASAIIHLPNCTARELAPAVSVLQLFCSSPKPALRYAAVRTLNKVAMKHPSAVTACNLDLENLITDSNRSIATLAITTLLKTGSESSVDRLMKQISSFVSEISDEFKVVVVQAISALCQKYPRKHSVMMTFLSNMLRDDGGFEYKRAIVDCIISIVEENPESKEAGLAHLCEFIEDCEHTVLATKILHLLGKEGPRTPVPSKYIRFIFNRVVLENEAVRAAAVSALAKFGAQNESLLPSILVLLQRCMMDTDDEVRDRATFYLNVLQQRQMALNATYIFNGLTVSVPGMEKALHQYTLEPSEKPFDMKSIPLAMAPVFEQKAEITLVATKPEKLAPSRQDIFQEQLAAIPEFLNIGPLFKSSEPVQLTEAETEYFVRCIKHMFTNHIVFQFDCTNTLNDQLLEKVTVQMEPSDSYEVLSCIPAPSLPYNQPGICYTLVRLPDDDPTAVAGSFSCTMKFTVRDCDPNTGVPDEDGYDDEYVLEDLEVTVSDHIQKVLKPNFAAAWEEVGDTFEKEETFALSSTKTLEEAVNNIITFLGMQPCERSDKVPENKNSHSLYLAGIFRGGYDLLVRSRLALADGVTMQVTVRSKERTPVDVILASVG

Tests used:
[1] = biological target: COG1_Q8WTW3_584_HIVDCIR (UniProt Q8WTW3); test: probe-labelled cysteine peptide fold change vs DMSO (competition) (log2 fold change); higher = less target engagement (more negative = stronger competition); conditions: THP-1, incubation time: 4 h
[2] = biological target: COPG2_Q9UBF2_662_HMFTNHIVFQFDCTNTLNDQLLEK (UniProt Q9UBF2); test: as above; conditions: THP-1, incubation time: 4 h
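Also: competitive chemoproteomic profiling in live THP-1 cells with an iodoacetamide desthiobiotin (IA-DTB) probe, comparing probe-labelled peptide intensities in compound-treated cells against DMSO-treated controls.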

Structure (SMILES): CC1Cc2ccccc2N1C(=O)C1CCCN(C(=O)CCl)C1 (mixture of isomers) [TRIM25 ligand 11 (diastereomer mixture)]
- probe-labelled cysteine peptide fold change ([1]; 10 µM): 0.0311
- probe-labelled cysteine peptide fold change ([1]; 50 µM): 0.232
- probe-labelled cysteine peptide fold change ([2]; 10 µM): 0.00666
- probe-labelled cysteine peptide fold change ([2]; 50 µM): -0.0937
